This assay deals with poly ADP‐ribose polymerase‐1 (PARP1) (human (endogenous in KYSE-150 and TE-1)) (UniProt P09874). In words: co-IP; endogenous proteins in lysates of KYSE-150 and TE-1 cells (IP lysis solution with PMSF, protease and phosphatase inhibitors); antibody overnight at 4°C, Protein A/G magnetic beads 3 h at 4°C, western blot; also lysates pretreated with RNase A or recombinant RNase inhibitor (weaker with RNase A) and LNCAROD knockout KYSE-150 cells (attenuated). In general terms: In western blotting, separated proteins are transferred to a membrane and probed.

Protein sequences, listed by entry. Tags and fused reporters are not part of them.
UniProt P09874: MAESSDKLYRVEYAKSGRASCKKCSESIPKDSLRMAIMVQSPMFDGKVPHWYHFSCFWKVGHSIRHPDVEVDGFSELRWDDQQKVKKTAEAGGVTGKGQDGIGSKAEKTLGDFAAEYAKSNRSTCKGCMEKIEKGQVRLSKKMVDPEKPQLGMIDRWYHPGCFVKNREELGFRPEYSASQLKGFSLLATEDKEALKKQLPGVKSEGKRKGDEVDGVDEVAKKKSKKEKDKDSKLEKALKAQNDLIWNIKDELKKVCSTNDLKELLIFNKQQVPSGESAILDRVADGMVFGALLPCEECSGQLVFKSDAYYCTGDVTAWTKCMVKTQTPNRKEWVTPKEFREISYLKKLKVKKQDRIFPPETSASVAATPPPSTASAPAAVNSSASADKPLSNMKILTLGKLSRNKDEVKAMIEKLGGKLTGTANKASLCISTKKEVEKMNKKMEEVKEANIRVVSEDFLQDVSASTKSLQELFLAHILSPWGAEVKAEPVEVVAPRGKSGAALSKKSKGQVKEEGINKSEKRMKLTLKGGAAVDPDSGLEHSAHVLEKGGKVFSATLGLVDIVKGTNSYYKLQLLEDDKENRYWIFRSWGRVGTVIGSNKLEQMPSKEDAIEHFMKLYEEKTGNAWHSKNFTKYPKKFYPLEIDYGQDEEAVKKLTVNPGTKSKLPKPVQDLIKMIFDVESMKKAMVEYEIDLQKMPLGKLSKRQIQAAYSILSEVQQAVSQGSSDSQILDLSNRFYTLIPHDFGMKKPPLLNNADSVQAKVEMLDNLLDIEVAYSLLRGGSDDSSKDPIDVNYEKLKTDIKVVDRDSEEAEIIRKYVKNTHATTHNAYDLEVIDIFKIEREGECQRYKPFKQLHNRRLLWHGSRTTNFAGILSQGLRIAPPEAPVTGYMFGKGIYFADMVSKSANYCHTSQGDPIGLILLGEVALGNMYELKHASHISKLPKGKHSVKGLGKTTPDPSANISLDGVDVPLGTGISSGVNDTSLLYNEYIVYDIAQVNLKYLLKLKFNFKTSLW
UniProt P06748: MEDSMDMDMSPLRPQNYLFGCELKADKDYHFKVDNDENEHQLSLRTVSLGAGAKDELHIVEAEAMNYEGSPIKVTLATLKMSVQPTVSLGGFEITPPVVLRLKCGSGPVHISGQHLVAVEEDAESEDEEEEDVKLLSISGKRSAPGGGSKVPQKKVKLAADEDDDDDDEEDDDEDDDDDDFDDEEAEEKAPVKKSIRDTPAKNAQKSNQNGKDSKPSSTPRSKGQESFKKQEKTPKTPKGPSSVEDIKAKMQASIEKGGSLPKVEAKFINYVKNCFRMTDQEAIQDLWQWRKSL

These are yes or no findings as the source states them, for the method shown. Binding seen in cells or lysates may run through a third protein. Some binding calls cover weakened binding; strength is not graded here.

“nucleophosmin 1 (NPM1) (from UniProt P06748 1-294)”: the binding entry is “binds”.

Values taken from publication PMC11452732.
